The text below walks through data of PubChem BioAssay AID901 (National Center for Advancing Translational Sciences (NCATS), 2007).

Structures are written as SMILES. The list shows a part of the results. The main result of the screen is listed elsewhere. These columns were measured beside it and carry no call. Compounds called inactive in the main read-out are mostly missing here. Potencies come from curve fits of mixed quality, noted in brackets.

The AC50 is the midpoint of the concentration-response curve, whichever way the signal moves.

A short description of the assay: qHTS Assay for Identifying the Cell-Membrane Permeable IMPase Inhibitors. Conditions: CHO-M1 cells, IP1 accumulation, HTRF TR-FRET ratio; measured here: donor channel 620 nm AC50. For orientation: In qHTS, concentration-response curves come from the screen itself.
Turning to `COc1ccc2cc3[n+](cc2c1OC)CCc1cc2c(cc1-3)OCO2`, the AC50 is 15.8 µM [falling, single point].

In the case of `Cc1[nH]c2ccccc2c1C(=O)CN1C(=O)NC(C)(c2ccc(Cl)cc2Cl)C1=O` (configuration not stated), the AC50 was 0.126 µM [rising, full curve, poor fit].

In the case of `O=C(CSc1nnc(-c2ccco2)n1Cc1ccco1)Nc1ccccc1`, the AC50 is 0.631 µM [falling, full curve, poor fit].

For the molecule `COc1ccc(-c2cc3ccc(OCc4nn[nH]n4)cc3oc2=O)cc1`, the AC50 is 28.2 µM [rising, partial curve].

In the case of `COC(=O)c1scc(C)c1NC(=O)Nc1ccccc1`, the AC50 is 2.82 µM [falling, full curve, poor fit].

Regarding `CC(C)C1Oc2ccccc2N(CC(=O)N(Cc2ccncc2)Cc2ccco2)C1=O` (configuration not stated), the AC50 is 0.501 µM [falling, full curve].

In the case of `Cc1ccc(S(=O)(=O)NC(C)C(c2cccs2)N2CCN(c3ccccc3)CC2)cc1` (configuration not stated), the concentration at half-maximal activity (AC50) is 0.794 µM [falling, full curve].

Take `COc1ccc(/C=N/NC(=O)C(=O)NCC2CCCO2)cc1` (configuration not stated): the concentration at half-maximal activity (AC50) was 25.1 µM [falling, single point].

With `CCOC(=O)c1cc(CC)sc1NC(=O)c1ccc(N2CCOCC2)c([N+](=O)[O-])c1`, the half-maximal activity concentration (AC50) is 0.0251 µM [rising, full curve, poor fit].

For the molecule `CC(C(=O)N1CCCCC1)n1sc2ccccc2c1=O` (configuration not stated), the AC50 is 3.98 µM [falling, partial curve].

Regarding `Cc1ccc2c(c1)N(CC(=O)N(Cc1ccccn1)Cc1ccco1)C(=O)C(C(C)C)O2` (configuration not stated), the half-maximal activity concentration (AC50) was 0.158 µM [falling, full curve].

As for `c1ccc2[nH]c(CSc3nc4ccccc4s3)nc2c1`, the AC50 is 0.0501 µM [rising, full curve].

Take `COc1ccc(-c2cc(C(=O)Nc3c(C)nn(Cc4ccccc4Cl)c3C)no2)cc1OC`: the concentration at half-maximal activity (AC50) is 1 µM [falling, full curve, poor fit].

In the case of `COc1ccccc1CNc1n[nH]c(NCc2ccccc2OC)n1`, the half-maximal activity concentration (AC50) was 12.6 µM [falling, partial curve, poor fit].

On to `CCCCN(CCCC)CC1OCc2ccccc2CO1`, for which the concentration at half-maximal activity (AC50) is 1 µM [falling, partial curve].

Take `Cn1cccc1C(=O)NC(=O)COC(=O)Cc1coc2ccc3ccccc3c12`: the AC50 is 0.0631 µM [rising, full curve, poor fit].

Regarding `O=C(O)COc1ccc(S(=O)(=O)NCCc2ccccc2)cc1`, the AC50 is 5.62 µM [falling, full curve].

With `NS(=O)(=O)c1ccc(CCNc2nc(CN3CCCCC3)nc3sc4c(c23)CCC4)cc1`, the AC50 was 0.01 µM [falling, full curve, poor fit].

Take `N[C@H](C(=O)O)c1cccc(O)c1`: the half-maximal activity concentration (AC50) is 0.0158 µM [falling, full curve, poor fit].

`Cc1ccc(N=c2ssnc2Cl)cc1`: the half-maximal activity concentration (AC50) is 0.02 µM [rising, full curve, poor fit].

As for `O=S(=O)(Nc1nc2ccccc2[nH]1)c1ccc2ccccc2c1`, the half-maximal activity concentration (AC50) was 2.51 µM [falling, single point].

With `Clc1ccc(-c2csc(N3CCN(c4ccccc4)CC3)n2)cc1`, the concentration at half-maximal activity (AC50) is 20 µM [rising, single point].

On to `CC(C)(C)OC(=O)N1CCC[C@H]1c1nnc(SCc2ccccc2F)o1`, for which the half-maximal activity concentration (AC50) is 5.01 µM [falling, single point].

`c1ccc(Sc2cnc3ccccc3n2)cc1`: the half-maximal activity concentration (AC50) is 14.1 µM [rising, single point].

Turning to `O=C(NCCC1=CCCCC1)c1cnc2n(c1=O)CCS2`, the half-maximal activity concentration (AC50) was 0.112 µM [falling, full curve, poor fit].

On to `COc1cccc(C(=O)N2CCN(C(=O)c3cccs3)CC2)c1OC`, for which the concentration at half-maximal activity (AC50) is 0.794 µM [falling, partial curve].

On to `O=C(CN1CCOCC1)Nc1ccc(-c2nc3ccccc3[nH]2)cc1`, for which the AC50 was 3.98 µM [rising, single point].

Regarding `O=C(Nc1nnc(-c2ccccc2)o1)C1CCCCC1`, the AC50 is 2.82 µM [falling, single point].

In the case of `COc1ccc(NC(=O)CN(C)S(=O)(=O)c2ccccc2)cc1OC`, the half-maximal activity concentration (AC50) was 0.126 µM [rising, partial curve].

As for `CCCOc1ccc(NCC(=O)Nc2ccc(C)cc2C)cc1`, the AC50 was 0.501 µM [falling, full curve].

On to `Cc1c2cc(O)c(=O)cc-2oc2cc(O)c(O)cc12`, for which the concentration at half-maximal activity (AC50) was 12.6 µM [falling, partial curve].

For `CCOC(=O)c1nnn(C(CC)C(=O)Nc2ccc(F)cc2)c1C(=O)OCC` (configuration not stated), the concentration at half-maximal activity (AC50) was 1.12 µM [falling, full curve, poor fit].

On to `O=S(=O)(c1cccs1)N1CCc2ccccc21`, for which the AC50 is 0.00794 µM [falling, full curve, poor fit].

Regarding `O=C(NCc1cccs1)C1CCN(S(=O)(=O)c2cccs2)CC1`, the AC50 was 0.794 µM [falling, partial curve, poor fit].

Take `CC1(C)CCc2nc(SCc3ccccc3)c(C#N)cc2C1`: the concentration at half-maximal activity (AC50) is 31.6 µM [falling, single point].

For the molecule `CCN(CC)CCNC(=O)c1ccccc1C(=O)c1ncc[nH]1`, the AC50 is 5.01 µM [falling, partial curve].

Turning to `CC12CN3CCN(CC(C3)C1(O)CN1CCCCC1)C2` (configuration not stated), the AC50 was 31.6 µM [falling, single point].

Turning to `CC(=O)N(c1ccc(Cl)cc1)c1c[nH]c2ccccc12`, the AC50 is 0.02 µM [rising, full curve, poor fit].

In the case of `O=C(COC(=O)c1cc(-c2ccccc2Cl)nc2ccccc12)Nc1ncc(C(F)(F)F)cc1Cl`, the concentration at half-maximal activity (AC50) was 3.16 µM [rising, single point].

In the case of `CCOc1ccc(OCC)c(N=c2oc3c(C)ncc(CO)c3cc2C(N)=O)c1`, the concentration at half-maximal activity (AC50) is 3.16 µM [rising, single point].

In the case of `Cc1ccccc1C(=O)Nc1c2c(nc3ccccc13)CCCC2`, the half-maximal activity concentration (AC50) is 22.4 µM [rising, single point].

As for `CN(C)CCNc1c2c(c(C#N)c3nc4ccccc4n13)CCCC2`, the AC50 was 3.98 µM [falling, full curve, poor fit].

As for `N#Cc1cc(Oc2cccnc2)c(Oc2cccnc2)cc1C#N`, the concentration at half-maximal activity (AC50) is 0.126 µM [falling, full curve, poor fit].

`Cc1cc(C)n(-c2nnc(SCC(=O)NC3CCCC3)c3ccccc23)n1`: the AC50 was 31.6 µM [falling, single point].

Regarding `CC(C)CC(C(=O)NC(=O)NCc1ccccc1)N1C(=O)c2ccccc2C1=O` (configuration not stated), the half-maximal activity concentration (AC50) is 0.02 µM [rising, full curve, poor fit].

As for `CCCN1CCC2(CC1)C(C#N)=C(N)Oc1c2sc2nc(C)cc(C)c12`, the AC50 was 0.2 µM [falling, full curve, poor fit].

As to `CCN(CC)S(=O)(=O)c1ccc2c(c1)nc(CCC(=O)Nc1ccccc1Cc1ccccc1)n2CC`, the concentration at half-maximal activity (AC50) is 0.794 µM [falling, full curve].

For the molecule `Nc1nnnn1/N=C/c1ccco1`, the half-maximal activity concentration (AC50) was 3.98 µM [falling, single point].

For the molecule `Cc1sc2nc(C3CC3)nc(SCC(=O)N3c4ccccc4CC3C)c2c1C` (configuration not stated), the AC50 was 0.794 µM [rising, full curve, poor fit].

For the molecule `COc1cc(/C=N/Nc2nn3cnnc3c3ccccc23)ccc1O`, the AC50 was 12.6 µM [falling, single point].

For `COCCn1nnnc1C(c1cccs1)N1CCN(c2cccc(C(F)(F)F)c2)CC1` (configuration not stated), the AC50 is 10 µM [rising, partial curve].

Consider `COc1ccc(C(=O)Nc2ccc(CN3CCOCC3)cc2)cc1`, for which the AC50 was 20 µM [falling, single point].

In the case of `CCN(Cc1ccccc1)Cc1c(O)ccc2c(=O)c(-c3ccc(Cl)cc3)c(C(F)(F)F)oc12`, the AC50 is 28.2 µM [rising, single point].

`CCN(CC)C(=O)CCNS(=O)(=O)c1ccc(C)cc1`: the AC50 was 31.6 µM [rising, single point].

As for `CCOC(=O)c1[nH]cnc1C(=O)Nc1ccccn1`, the AC50 is 3.98 µM [rising, partial curve, poor fit].

Regarding `O=C(C1=NN[C@@H]2C(=O)N(c3ccccc3C(F)(F)F)C(=O)[C@H]12)C(c1ccccc1)c1ccccc1`, the AC50 is 35.5 µM [rising, single point].

With `O=C(Nc1ccccc1-c1nnc(SCc2ccccc2Cl)o1)c1ccccc1`, the half-maximal activity concentration (AC50) was 25.1 µM [rising, single point].

Take `O=C(NCc1ccccc1Cl)c1ccc(Nc2nc3ccccc3n3nnnc23)cc1`: the AC50 is 5.01 µM [falling, partial curve, poor fit].

Take `CCOc1ccc(NC(=O)C(=O)NCC2CCCN2CC)cc1` (configuration not stated): the AC50 is 6.31 µM [rising, single point].

Take `O=C(CSc1ncnc2c1oc1ccccc12)NCc1ccco1`: the concentration at half-maximal activity (AC50) is 10 µM [rising, partial curve].

As for `COC(=O)c1cc(Br)c(=O)n(Cc2ccc(OC)c(OC)c2)c1`, the AC50 is 6.31 µM [falling, single point].

Regarding `Cc1ccc(C(=O)NNC(=O)c2ccc(SCC3CCCO3)c([N+](=O)[O-])c2)cc1` (configuration not stated), the half-maximal activity concentration (AC50) is 0.02 µM [rising, full curve, poor fit].

For the molecule `Cc1cccc2cc(C(c3nnnn3C3CCCC3)N3CCOCC3)c(=O)[nH]c12` (configuration not stated), the half-maximal activity concentration (AC50) was 0.02 µM [rising, full curve, poor fit].

Regarding `Cc1sc2ncnc(Sc3ccccc3C(=O)Nc3ccccc3Cl)c2c1C`, the AC50 is 6.31 µM [rising, single point].

Take `Cc1cccc(Nc2nn3c(=O)c4ccccc4nc3s2)c1`: the half-maximal activity concentration (AC50) is 31.6 µM [rising, single point].

In the case of `O=C(c1ccc(CNS(=O)(=O)c2cccc(C(F)(F)F)c2)cc1)N1CCOCC1`, the AC50 is 3.16 µM [falling, partial curve, poor fit].

Regarding `O=C(CSc1nc2[nH]ncc2c(=O)[nH]1)N1CCCCC1`, the concentration at half-maximal activity (AC50) was 1.12 µM [rising, full curve, poor fit].
